PubChem BioAssay AID1224831 – NIAID | 2016
The deposit covers about 3,500 reagents; this is a part drawn at random. Over the whole deposit, 731 (21%) were called active. 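Active means either lowered or raised reporter signal; the gene-median score did not drive the per-siRNA calls.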 The numbers tell different reagents against one gene apart.

Purpose: 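Genes that support or restrain LPS-induced TNF-alpha reporter activity in macrophage-like cells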 (follow-up of hits)
System: human THP-1 B5 monocytic leukaemia cells carrying a TNF promoter luciferase reporter, made macrophage-like with PMA
Knock-down reagent: single siRNA against human genes, 50 nM
Timing: about 68 h of knock-down, then 4 h LPS
Challenge: LPS (Salmonella minnesota, TLR-grade) at 10 ng/ml for 4 h; PMA 5 ng/ml present during knock-down
Read-out: 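Firefly to renilla luciferase ratio of a TNF promoter reporter after 4 h LPS, scaled to plate median, turned into robust z-score, averaged over replicates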
Direction: TNF reporter z-score: higher = stronger LPS-induced TNF reporter signal; z-score, median over gene's siRNAs: higher = stronger TNF reporter signal across the gene's siRNAs
Call rule: 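Active when the replicate mean z-score is about -1 or lower, or about 1.5 or higher; lowered and raised TNF reporter signal both count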
Calls: active = changed TNF reporter (either direction); inactive = little change

| Gene | reagent no. | TNF reporter z-score, replicate mean | z-score, median over gene's siRNAs | outcome |
| --- | --- | --- | --- | --- |
| ZNF625 | 1 | -0.39 | 0.02 | inactive |
| ZNF625 | 2 | 0.17 | 0.02 | inactive |
| ZNF625 | 3 | -0.13 | 0.02 | inactive |
| ZNF625 | 4 | -0.15 | 0.02 | inactive |
| ZNF625 | 5 | 0.94 | 0.02 | inactive |
| ZNF625 | 6 | 0.7 | 0.02 | inactive |
| ZNF750 | 1 | -1.97 | -0.275 | active |
| ZNF750 | 2 | -0.31 | -0.275 | inactive |
| ZNF750 | 3 | -0.96 | -0.275 | inactive |
| ZNF750 | 4 | 0.52 | -0.275 | inactive |
| ZNF750 | 5 | -0.24 | -0.275 | inactive |
| ZNF750 | 6 | 0.96 | -0.275 | inactive |
| PKIG | 1 | -0.57 | -0.23 | inactive |
| PKIG | 2 | -0.51 | -0.23 | inactive |
| PKIG | 3 | -0.28 | -0.23 | inactive |
| PKIG | 4 | 0.06 | -0.23 | inactive |
| PKIG | 5 | -0.18 | -0.23 | inactive |
| PKIG | 6 | 1.06 | -0.23 | inactive |
| OR10Q1 | 1 | -0.83 | -0.505 | inactive |
| OR10Q1 | 2 | 0.92 | -0.505 | inactive |
| OR10Q1 | 3 | -0.18 | -0.505 | inactive |
| OR10Q1 | 4 | -1.23 | -0.505 | active |
| OR10Q1 | 5 | -0.08 | -0.505 | inactive |
| OR10Q1 | 6 | -0.92 | -0.505 | inactive |
| PLSCR2 | 1 | -0.18 | 0.145 | inactive |
| PLSCR2 | 2 | 0.79 | 0.145 | inactive |
| PLSCR2 | 3 | -0.8 | 0.145 | inactive |
| PLSCR2 | 4 | 2.87 | 0.145 | active |
| PLSCR2 | 5 | 0.29 | 0.145 | inactive |
| PLSCR2 | 6 | 0 | 0.145 | inactive |
| PRRT1 | 1 | -0.9 | -0.435 | inactive |
| PRRT1 | 2 | -1.02 | -0.435 | active |
| PRRT1 | 3 | -0.09 | -0.435 | inactive |
| PRRT1 | 4 | -0.54 | -0.435 | inactive |
| PRRT1 | 5 | 1.55 | -0.435 | active |
| PRRT1 | 6 | -0.33 | -0.435 | inactive |
| ARCN1 | 1 | -1.05 | -1.03 | active |
| ARCN1 | 2 | -1.8 | -1.03 | active |
| ARCN1 | 3 | -1.02 | -1.03 | active |
| ARCN1 | 4 | 0.29 | -1.03 | inactive |
| ARCN1 | 5 | -0.42 | -1.03 | inactive |
| ARCN1 | 6 | -1.25 | -1.03 | active |
| PLCXD2 | 1 | 0.04 | -0.185 | inactive |
| PLCXD2 | 2 | 0.8 | -0.185 | inactive |
| PLCXD2 | 3 | -0.05 | -0.185 | inactive |
| PLCXD2 | 4 | -0.32 | -0.185 | inactive |
| PLCXD2 | 5 | -0.75 | -0.185 | inactive |
| PLCXD2 | 6 | -0.59 | -0.185 | inactive |
| RERE | 1 | 1.08 | 0.22 | inactive |
| RERE | 2 | -0.64 | 0.22 | inactive |
| RERE | 3 | 1.32 | 0.22 | inactive |
| RERE | 4 | -1.85 | 0.22 | active |
| RERE | 5 | 1.35 | 0.22 | inactive |
| RERE | 6 | -0.83 | 0.22 | inactive |
| C2CD2L | 1 | 0.76 | 1.03 | inactive |
| C2CD2L | 2 | -0.37 | 1.03 | inactive |
| C2CD2L | 3 | 3.09 | 1.03 | active |
| C2CD2L | 4 | 1.01 | 1.03 | inactive |
| C2CD2L | 5 | 1.06 | 1.03 | inactive |
| C2CD2L | 6 | 5.93 | 1.03 | active |

Copied from the list:
PKIG #1, outcome = inactive
Value of ARCN1 #3 in “z-score, median over gene's siRNAs”: -1.03
Under “outcome”, ZNF750 #1 has active
Under “TNF reporter z-score, replicate mean”, PLSCR2 #2 is entered as 0.79
For “z-score, median over gene's siRNAs”, ZNF750 #2 has -0.275
